# Experimental data reported in the supplement of paper PMC10849652.
# By UniProt entry, the sequences of proteins in these tests, tags left out. Where a name states a change or a piece, a line headed by the entry shows the natural chain unless it says otherwise.
# UniProt O14772: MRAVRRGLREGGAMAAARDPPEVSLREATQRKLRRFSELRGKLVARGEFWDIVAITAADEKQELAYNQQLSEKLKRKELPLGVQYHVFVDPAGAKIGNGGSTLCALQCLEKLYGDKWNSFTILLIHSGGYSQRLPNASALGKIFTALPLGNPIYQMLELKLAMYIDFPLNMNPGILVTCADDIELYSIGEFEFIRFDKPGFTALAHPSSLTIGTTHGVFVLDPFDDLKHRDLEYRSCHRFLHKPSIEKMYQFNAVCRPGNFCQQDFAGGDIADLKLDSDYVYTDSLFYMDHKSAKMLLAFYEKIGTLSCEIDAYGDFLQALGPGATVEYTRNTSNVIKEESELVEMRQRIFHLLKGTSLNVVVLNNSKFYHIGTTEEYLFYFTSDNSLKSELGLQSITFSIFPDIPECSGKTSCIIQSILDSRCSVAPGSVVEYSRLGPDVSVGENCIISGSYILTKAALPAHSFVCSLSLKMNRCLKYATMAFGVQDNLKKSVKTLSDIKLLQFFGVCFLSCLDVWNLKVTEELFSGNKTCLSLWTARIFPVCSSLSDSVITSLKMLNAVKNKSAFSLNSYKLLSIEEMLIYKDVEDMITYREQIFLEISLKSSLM
# UniProt P02774: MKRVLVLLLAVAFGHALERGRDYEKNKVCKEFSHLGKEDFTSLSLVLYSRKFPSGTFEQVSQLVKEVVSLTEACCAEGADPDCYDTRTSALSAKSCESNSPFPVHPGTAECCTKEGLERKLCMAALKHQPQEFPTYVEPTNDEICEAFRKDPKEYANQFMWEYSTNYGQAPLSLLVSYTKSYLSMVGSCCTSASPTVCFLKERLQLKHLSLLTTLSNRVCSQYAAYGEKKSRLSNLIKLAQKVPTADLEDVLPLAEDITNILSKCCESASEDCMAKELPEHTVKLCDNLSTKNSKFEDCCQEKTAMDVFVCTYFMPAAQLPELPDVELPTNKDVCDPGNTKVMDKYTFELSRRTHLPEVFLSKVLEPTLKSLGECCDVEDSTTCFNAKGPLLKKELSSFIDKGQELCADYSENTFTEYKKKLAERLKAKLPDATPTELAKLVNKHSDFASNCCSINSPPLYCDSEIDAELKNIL
# UniProt P51114, whole entry, looked up: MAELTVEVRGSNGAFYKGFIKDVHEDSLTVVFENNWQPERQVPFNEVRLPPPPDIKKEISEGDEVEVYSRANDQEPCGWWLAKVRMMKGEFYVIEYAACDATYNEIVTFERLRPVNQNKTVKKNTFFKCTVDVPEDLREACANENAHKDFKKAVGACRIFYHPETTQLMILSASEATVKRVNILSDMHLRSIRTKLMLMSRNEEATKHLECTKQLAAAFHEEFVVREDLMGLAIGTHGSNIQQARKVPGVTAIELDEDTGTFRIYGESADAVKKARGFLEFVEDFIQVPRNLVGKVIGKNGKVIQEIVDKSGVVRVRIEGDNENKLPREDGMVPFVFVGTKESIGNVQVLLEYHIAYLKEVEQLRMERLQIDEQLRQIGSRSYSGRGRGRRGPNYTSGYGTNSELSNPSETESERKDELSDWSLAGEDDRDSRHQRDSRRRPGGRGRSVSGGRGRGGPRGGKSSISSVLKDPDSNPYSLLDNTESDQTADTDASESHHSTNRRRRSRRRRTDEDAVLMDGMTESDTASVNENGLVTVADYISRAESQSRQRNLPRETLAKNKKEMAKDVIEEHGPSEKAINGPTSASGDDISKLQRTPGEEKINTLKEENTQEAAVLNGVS
# UniProt Q9H3K2: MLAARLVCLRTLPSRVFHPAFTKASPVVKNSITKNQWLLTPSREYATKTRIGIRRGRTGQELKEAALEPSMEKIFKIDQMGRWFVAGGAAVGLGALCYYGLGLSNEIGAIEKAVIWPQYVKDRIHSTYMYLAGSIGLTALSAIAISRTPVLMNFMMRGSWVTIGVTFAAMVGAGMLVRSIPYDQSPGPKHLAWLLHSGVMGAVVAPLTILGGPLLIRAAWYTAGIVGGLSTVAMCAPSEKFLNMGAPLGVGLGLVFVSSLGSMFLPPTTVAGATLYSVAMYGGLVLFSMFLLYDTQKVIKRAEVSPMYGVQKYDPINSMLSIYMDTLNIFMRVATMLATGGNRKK
# UniProt O95749: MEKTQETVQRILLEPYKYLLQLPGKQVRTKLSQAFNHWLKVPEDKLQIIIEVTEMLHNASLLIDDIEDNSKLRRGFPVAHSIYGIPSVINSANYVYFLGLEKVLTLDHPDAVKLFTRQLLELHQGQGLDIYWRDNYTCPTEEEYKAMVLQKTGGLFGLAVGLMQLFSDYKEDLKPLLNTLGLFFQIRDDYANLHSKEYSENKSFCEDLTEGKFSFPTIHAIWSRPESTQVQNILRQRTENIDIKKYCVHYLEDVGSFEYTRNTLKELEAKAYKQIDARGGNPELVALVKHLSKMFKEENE
# UniProt P60520, whole entry, looked up: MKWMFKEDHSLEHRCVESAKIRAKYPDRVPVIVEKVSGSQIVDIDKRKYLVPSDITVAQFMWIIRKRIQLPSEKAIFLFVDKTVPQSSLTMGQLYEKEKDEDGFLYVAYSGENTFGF
# UniProt O15117, whole entry, looked up: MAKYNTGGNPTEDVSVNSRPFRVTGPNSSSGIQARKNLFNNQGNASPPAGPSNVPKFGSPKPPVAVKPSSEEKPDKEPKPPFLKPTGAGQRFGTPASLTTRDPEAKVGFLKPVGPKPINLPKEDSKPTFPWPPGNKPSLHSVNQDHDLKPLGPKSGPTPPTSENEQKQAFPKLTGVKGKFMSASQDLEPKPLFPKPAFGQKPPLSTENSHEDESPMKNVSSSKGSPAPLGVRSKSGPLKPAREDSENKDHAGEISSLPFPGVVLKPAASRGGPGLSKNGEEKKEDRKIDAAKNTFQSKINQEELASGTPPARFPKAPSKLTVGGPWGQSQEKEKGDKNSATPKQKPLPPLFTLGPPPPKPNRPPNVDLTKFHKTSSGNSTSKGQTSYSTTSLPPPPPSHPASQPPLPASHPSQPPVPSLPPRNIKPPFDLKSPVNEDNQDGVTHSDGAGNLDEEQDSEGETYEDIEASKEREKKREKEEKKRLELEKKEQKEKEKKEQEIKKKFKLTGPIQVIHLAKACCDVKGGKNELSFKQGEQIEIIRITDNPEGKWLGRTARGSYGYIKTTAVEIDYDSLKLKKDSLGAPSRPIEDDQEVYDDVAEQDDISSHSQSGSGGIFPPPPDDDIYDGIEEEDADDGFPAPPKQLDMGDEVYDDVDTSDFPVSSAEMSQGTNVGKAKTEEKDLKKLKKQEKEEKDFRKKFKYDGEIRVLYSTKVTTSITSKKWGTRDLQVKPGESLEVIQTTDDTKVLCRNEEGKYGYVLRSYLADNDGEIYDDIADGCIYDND
# UniProt Q495W5: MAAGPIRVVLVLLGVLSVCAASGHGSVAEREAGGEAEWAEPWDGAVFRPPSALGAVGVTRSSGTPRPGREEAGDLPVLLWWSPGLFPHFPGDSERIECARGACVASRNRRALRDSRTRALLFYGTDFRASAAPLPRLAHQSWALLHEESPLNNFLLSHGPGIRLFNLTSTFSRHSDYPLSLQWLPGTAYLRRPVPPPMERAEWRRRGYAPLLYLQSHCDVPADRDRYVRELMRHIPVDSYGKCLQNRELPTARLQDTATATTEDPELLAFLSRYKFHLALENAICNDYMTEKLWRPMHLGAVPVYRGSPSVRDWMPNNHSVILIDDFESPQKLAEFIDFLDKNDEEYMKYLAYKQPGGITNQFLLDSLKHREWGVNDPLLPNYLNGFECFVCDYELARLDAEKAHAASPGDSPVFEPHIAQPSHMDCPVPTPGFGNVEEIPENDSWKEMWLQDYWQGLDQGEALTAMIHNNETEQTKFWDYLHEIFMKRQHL
# UniProt P48507: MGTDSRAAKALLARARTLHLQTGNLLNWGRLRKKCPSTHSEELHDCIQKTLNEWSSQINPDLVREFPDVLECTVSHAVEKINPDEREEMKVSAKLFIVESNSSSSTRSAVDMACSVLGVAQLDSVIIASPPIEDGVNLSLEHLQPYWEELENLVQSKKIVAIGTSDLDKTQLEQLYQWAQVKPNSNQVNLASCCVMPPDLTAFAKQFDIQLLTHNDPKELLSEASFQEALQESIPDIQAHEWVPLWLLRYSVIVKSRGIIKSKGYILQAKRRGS
# UniProt Q8IVV7: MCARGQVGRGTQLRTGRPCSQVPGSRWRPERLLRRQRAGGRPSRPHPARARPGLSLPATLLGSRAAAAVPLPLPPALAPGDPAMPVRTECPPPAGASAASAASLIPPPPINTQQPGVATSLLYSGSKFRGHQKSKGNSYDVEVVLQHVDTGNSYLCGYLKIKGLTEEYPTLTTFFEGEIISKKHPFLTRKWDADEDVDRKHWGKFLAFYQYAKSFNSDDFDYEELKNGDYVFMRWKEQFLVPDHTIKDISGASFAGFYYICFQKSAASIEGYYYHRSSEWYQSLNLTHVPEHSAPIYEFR
# UniProt Q8IY81: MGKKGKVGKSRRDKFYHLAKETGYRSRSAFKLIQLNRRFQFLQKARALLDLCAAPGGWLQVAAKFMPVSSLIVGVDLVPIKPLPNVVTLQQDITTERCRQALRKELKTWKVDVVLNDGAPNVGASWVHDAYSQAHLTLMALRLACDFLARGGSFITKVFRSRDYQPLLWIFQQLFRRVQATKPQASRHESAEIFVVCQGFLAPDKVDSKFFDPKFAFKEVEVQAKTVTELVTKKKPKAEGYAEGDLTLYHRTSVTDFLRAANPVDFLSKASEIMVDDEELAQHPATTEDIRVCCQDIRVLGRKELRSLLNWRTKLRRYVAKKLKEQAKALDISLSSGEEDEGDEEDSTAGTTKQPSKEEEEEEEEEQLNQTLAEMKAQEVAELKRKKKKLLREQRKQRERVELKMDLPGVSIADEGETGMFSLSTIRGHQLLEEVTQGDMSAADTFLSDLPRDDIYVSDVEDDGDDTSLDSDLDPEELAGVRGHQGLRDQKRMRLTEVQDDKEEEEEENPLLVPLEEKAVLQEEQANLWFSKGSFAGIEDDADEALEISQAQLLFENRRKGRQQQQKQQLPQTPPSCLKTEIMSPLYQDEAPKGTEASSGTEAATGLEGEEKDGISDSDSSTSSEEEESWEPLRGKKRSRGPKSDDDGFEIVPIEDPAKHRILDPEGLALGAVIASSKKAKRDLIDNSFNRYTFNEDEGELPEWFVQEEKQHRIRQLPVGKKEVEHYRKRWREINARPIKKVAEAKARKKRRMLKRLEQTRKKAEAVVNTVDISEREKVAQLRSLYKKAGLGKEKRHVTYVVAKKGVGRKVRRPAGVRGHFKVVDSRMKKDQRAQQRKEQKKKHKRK
# UniProt P02794, whole entry, looked up: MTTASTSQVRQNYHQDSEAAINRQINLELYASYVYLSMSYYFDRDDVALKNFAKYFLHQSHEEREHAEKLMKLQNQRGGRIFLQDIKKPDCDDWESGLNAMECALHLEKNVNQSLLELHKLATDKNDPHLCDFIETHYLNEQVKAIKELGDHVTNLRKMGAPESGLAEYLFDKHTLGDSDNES
# UniProt Q8N9F7: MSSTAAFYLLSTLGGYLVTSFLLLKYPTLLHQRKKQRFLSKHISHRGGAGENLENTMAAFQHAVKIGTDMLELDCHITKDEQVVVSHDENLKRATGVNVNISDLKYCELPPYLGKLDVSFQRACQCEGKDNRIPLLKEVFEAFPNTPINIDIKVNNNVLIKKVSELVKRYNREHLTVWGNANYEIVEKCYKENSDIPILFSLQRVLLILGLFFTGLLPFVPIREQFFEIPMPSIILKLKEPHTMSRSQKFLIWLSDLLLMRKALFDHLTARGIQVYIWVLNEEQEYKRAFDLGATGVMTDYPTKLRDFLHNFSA
# UniProt P51570: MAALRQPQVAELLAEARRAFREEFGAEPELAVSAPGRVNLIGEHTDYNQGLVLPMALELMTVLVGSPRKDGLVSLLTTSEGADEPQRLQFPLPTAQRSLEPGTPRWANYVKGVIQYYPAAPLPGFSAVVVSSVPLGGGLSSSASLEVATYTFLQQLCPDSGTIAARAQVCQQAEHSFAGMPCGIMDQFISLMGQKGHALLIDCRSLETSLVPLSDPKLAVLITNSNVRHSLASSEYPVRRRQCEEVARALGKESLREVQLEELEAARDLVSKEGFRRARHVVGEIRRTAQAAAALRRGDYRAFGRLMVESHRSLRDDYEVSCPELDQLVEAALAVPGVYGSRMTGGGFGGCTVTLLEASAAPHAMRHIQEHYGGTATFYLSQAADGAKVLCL
# UniProt P23769: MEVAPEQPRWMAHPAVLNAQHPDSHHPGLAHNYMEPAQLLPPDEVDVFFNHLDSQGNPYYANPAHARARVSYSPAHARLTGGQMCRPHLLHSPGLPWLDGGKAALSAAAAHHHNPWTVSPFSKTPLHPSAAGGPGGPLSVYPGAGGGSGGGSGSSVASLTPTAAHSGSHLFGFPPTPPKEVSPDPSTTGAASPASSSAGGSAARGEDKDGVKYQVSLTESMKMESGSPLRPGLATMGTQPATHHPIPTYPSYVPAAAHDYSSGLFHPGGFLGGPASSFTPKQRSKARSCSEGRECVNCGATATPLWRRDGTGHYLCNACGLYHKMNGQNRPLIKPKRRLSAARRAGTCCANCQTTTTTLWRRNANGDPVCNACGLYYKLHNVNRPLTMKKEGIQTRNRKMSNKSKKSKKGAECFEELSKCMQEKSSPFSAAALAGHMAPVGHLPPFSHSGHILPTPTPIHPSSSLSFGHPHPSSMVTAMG
# The list shows a part of the results.
# Assays:
# Experiment in all cases: log2 fold change, soluble protein after heating vs DMSO (PISA); higher = thermal stabilisation; K562 cells, 10 uM, 30 min; active = over 0.2 and 3.5 SD of the protein, either way, in both replicates (recomputed)
# saracatinib = compound: CN1CCN(CCOc2cc(OC3CCOCC3)c3c(Nc4c(Cl)ccc5c4OCO5)ncnc3c2)CC1 [saracatinib]
# Outline: (§1)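 Quantification of soluble protein used TMTpro 16plex LC-MS/MS, with channel sums equalised. Samples were the supernatant after 21,000xg for 90 min of pooled aliquots from K562 cells (2×10^6 cells/mL) treated with 10 μM compound for 30 min, heated for 3 min over 48°C-58°C, and extracted in PBS with 0.5% NP-40 at 4°C. Values, from duplicates, describe thermal stability against control samples on a log2 fold-change scale.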
# sotrastaurin = compound: CN1CCN(c2nc(C3=C(c4c[nH]c5ccccc45)C(=O)NC3=O)c3ccccc3n2)CC1 [sotrastaurin]
# Outline: as §1
# alvocidib = compound: CN1CC[C@H](c2c(O)cc(O)c3c(=O)cc(-c4ccccc4Cl)oc23)[C@H](O)C1 [alvocidib]
# Outline: as §1
# Tubastatin A = compound: CN1CCc2c(c3ccccc3n2Cc2ccc(C(=O)NO)cc2)C1 [Tubastatin A]
# Outline: as §1
# [1] = compound: CNC(=O)C1=CC=CC=C1NC2=NC(=NC=C2Cl)NC3=C(C=C(C=C3)N4CCOCC4)OC
# Outline: as §1
# defactinib = compound: CNC(=O)c1ccc(Nc2ncc(C(F)(F)F)c(NCc3nccnc3N(C)S(C)(=O)=O)n2)cc1 [defactinib]
# Outline: as §1
# rucaparib = compound: CNCc1ccc(-c2[nH]c3cc(F)cc4c3c2CCNC4=O)cc1 [rucaparib]
# Outline: as §1
# [2] = compound: CNc1nc(-c2ccc3c(N)n[nH]c3c2)cc(N2C[C@@H](C(=O)NC3CCCCC3)CC[C@H]2C)n1
# Outline: as §1
# encorafenib = compound: COC(=O)N[C@@H](C)CNc1nccc(-c2cn(C(C)C)nc2-c2cc(Cl)cc(NS(C)(=O)=O)c2F)n1 [encorafenib]
# Outline: as §1
# [3] = compound: COC(=O)[C@H](CCSC)NC(=O)C1=C(C=C(C=C1)NC[C@H](CS)N)C2=CC=CC=C2
# Outline: as §1
Target,log2 fold change (saracatinib),log2 fold change (sotrastaurin),log2 fold change (alvocidib),log2 fold change (Tubastatin A),log2 fold change [1],log2 fold change (defactinib),log2 fold change (rucaparib),log2 fold change [2],log2 fold change (encorafenib),log2 fold change [3]
GDI2 (UniProt P50395),inactive: -0.007,inactive: 0.009,inactive: -0.062,inactive: -0.005,inactive: 0.2,inactive: 0.004,inactive: -0.065,inactive: 0.005,inactive: -0.005,inactive: 0.021
FURIN (UniProt P09958),inactive: 0.031,inactive: -0.093,inactive: 0.006,inactive: -0.008,inactive: 0.037,inactive: -0.052,inactive: -0.104,inactive: -0.076,inactive: 0,inactive: -0.044
FPGT (UniProt O14772),inactive: 0.071,inactive: 0.024,inactive: -0.019,inactive: -0.014,inactive: -0.005,inactive: 0.011,inactive: -0.052,inactive: -0.025,inactive: -0.031,inactive: 0.021
GC isoform 3 (UniProt P02774),inactive: 0.594,inactive: 0.092,inactive: -0.094,inactive: -0.102,inactive: 0.209,inactive: -0.22,inactive: -0.119,inactive: 0.326,inactive: -0.074,inactive: 0.128
FXR1 (UniProt P51114),inactive: -0.103,inactive: -0.148,inactive: 0.204,inactive: 0.036,inactive: -0.082,inactive: 0.135,inactive: 0.463,inactive: 0.084,inactive: 0.164,inactive: -0.035
GHITM (UniProt Q9H3K2),inactive: 0.081,inactive: 0.019,inactive: 0,inactive: 0.001,inactive: 0.002,inactive: 0.008,inactive: -0.021,inactive: -0.031,inactive: -0.005,inactive: 0.007
GDAP1 (UniProt Q8TB36),inactive: 0.003,inactive: 0.013,inactive: -0.13,inactive: -0.03,inactive: -0.013,inactive: 0.037,inactive: -0.131,inactive: 0.036,inactive: 0,inactive: 0.007
GGPS1 (UniProt O95749),inactive: 0.024,inactive: 0.06,inactive: -0.014,inactive: -0.031,inactive: -0.026,inactive: -0.001,inactive: -0.098,inactive: -0.054,inactive: 0.011,inactive: 0.041
GABARAPL2 (UniProt P60520),inactive: 0.021,inactive: 0.047,–,inactive: 0.045,inactive: 0.011,inactive: -0.019,inactive: -0.111,inactive: -0.013,inactive: -0.02,inactive: -0.009
GABPA (UniProt Q06546),inactive: -0.065,inactive: -0.086,–,inactive: 0.087,inactive: -0.063,inactive: -0.064,inactive: -0.015,inactive: 0.018,inactive: 0.019,inactive: 0.011
GBA2 (UniProt Q9HCG7),inactive: -0.046,inactive: -0.026,–,inactive: -0.03,inactive: -0.012,inactive: -0.07,inactive: -0.266,inactive: 0.11,inactive: 0.084,inactive: 0.071
FYB1 isoform 3 (UniProt O15117),inactive: 0.007,inactive: -0.101,–,inactive: -0.018,inactive: 0,inactive: -0.112,inactive: 0.028,inactive: -0.076,inactive: 0.074,inactive: -0.01
FUT11 (UniProt Q495W5),inactive: -0.003,inactive: 0.071,inactive: 0.171,inactive: 0.055,inactive: 0.06,inactive: 0.157,–,inactive: 0.03,–,inactive: -0.061
GCLM (UniProt P48507),inactive: 0.012,inactive: -0.055,–,inactive: 0.061,inactive: 0.155,inactive: -0.151,inactive: 0.033,inactive: -0.045,inactive: 0.048,inactive: -0.042
GID4 (UniProt Q8IVV7),inactive: 0.04,inactive: -0.091,–,inactive: 0.015,inactive: -0.038,inactive: 0.032,inactive: 0.032,inactive: -0.079,inactive: -0.072,inactive: 0.139
GGCT (UniProt O75223),inactive: -0.006,inactive: 0.027,inactive: -0.057,inactive: -0.028,inactive: -0.024,inactive: 0.001,inactive: -0.016,inactive: 0.024,inactive: -0.051,inactive: -0.001
GCSH (UniProt P23434),inactive: -0.024,inactive: 0.057,–,inactive: -0.017,inactive: 0.021,inactive: -0.01,inactive: -0.012,inactive: -0.004,inactive: -0.028,inactive: -0.008

# Reformatted with tabs: entries from further up
Target	log2 fold change (saracatinib)	log2 fold change (sotrastaurin)	log2 fold change (alvocidib)	log2 fold change (Tubastatin A)	log2 fold change [1]	log2 fold change (defactinib)	log2 fold change (rucaparib)	log2 fold change [2]	log2 fold change (encorafenib)	log2 fold change [3]
FUT11 (UniProt Q495W5)	inactive: -0.003	inactive: 0.071	inactive: 0.171	inactive: 0.055	inactive: 0.06	inactive: 0.157	–	inactive: 0.03	–	inactive: -0.061
GCLM (UniProt P48507)	inactive: 0.012	inactive: -0.055	–	inactive: 0.061	inactive: 0.155	inactive: -0.151	inactive: 0.033	inactive: -0.045	inactive: 0.048	inactive: -0.042

# Later entries:

Target,log2 fold change (saracatinib),log2 fold change (sotrastaurin),log2 fold change (alvocidib),log2 fold change (Tubastatin A),log2 fold change [1],log2 fold change (defactinib),log2 fold change (rucaparib),log2 fold change [2],log2 fold change (encorafenib),log2 fold change [3]
GALNT10 (UniProt Q86SR1),inactive: 0.052,inactive: -0.065,inactive: -0.001,–,–,–,–,inactive: 0.062,–,–
FTSJ3 (UniProt Q8IY81),inactive: -0.437,inactive: 0,inactive: -0.074,–,inactive: 0.012,–,–,inactive: -0.259,–,–
FNTB (UniProt P49356),inactive: 0.046,inactive: 0.346,–,inactive: 0.017,inactive: -0.036,inactive: 0.095,inactive: 0.02,inactive: -0.007,inactive: -0.016,active: 0.974
FTH1 (UniProt P02794),inactive: -0.195,inactive: -0.041,inactive: 0.064,inactive: -0.072,inactive: -0.007,inactive: 0,inactive: -0.038,inactive: -0.094,inactive: 0.013,inactive: 0.053
GARS1 (UniProt P41250),inactive: 0.024,inactive: 0.055,inactive: 0.007,inactive: -0.016,inactive: -0.006,inactive: 0.005,inactive: -0.066,inactive: -0.028,inactive: -0.011,inactive: 0.011
GDPD1 (UniProt Q8N9F7),active: 0.505,inactive: 0.21,–,inactive: 0.019,inactive: -0.017,inactive: -0.087,inactive: -0.07,inactive: 0.042,inactive: -0.051,inactive: -0.041
GCC2 (UniProt Q8IWJ2),inactive: -0.051,inactive: -0.077,–,inactive: 0.053,inactive: 0.061,inactive: 0.026,inactive: 0.175,inactive: 0.031,inactive: 0.136,inactive: -0.049
GHDC (UniProt Q8N2G8),inactive: 0.003,inactive: 0.085,–,inactive: -0.032,inactive: 0.014,inactive: -0.033,inactive: 0.006,inactive: -0.007,inactive: 0.001,inactive: 0.02
GBF1 (UniProt Q92538),inactive: -0.055,inactive: -0.103,–,inactive: 0.034,inactive: -0.024,inactive: -0.031,inactive: 0.044,inactive: 0.059,inactive: 0.104,inactive: -0.015
GALK1 isoform 2 (UniProt P51570),inactive: 0.117,inactive: -0.096,–,inactive: -0.011,inactive: -0.049,inactive: -0.032,inactive: -0.014,inactive: 0.055,inactive: 0.007,inactive: -0.006
GALNT1 (UniProt Q10472),inactive: -0.026,inactive: 0.03,–,inactive: 0.064,inactive: 0.039,inactive: -0.046,inactive: 0.008,inactive: -0.047,inactive: -0.037,inactive: -0.005
GAB2 (UniProt Q9UQC2),inactive: -0.164,inactive: 0.029,–,inactive: -0.024,inactive: -0.575,inactive: -0.194,inactive: 0.162,inactive: -0.137,inactive: -0.023,inactive: 0.116
FOSL1 (UniProt P15407),inactive: 0.094,inactive: 0.003,inactive: 0.036,–,inactive: 0.096,inactive: 0.057,inactive: 0.037,inactive: 0.03,inactive: 0.024,inactive: 0.003
GATA2 (UniProt P23769),inactive: 0.117,inactive: -0.085,inactive: 0.138,–,inactive: -0.098,inactive: 0.269,inactive: 0.158,inactive: -0.051,inactive: -0.039,inactive: 0.076
FOXO3 (UniProt O43524),inactive: -0.017,inactive: 0.004,–,inactive: 0.051,inactive: -0.167,inactive: -0.037,inactive: -0.077,inactive: -0.208,inactive: 0.16,inactive: 0.021
GAK (UniProt O14976),inactive: 1.06,inactive: -0.066,–,inactive: 0.011,inactive: 1.11,inactive: 0.658,inactive: 0.237,inactive: 0.402,inactive: -0.17,inactive: -0.266
